Source: patent US20240368302A1 (NANOMAB TECHNOLOGY, published 2024)
Results are given in words; binding and its absence hold for the method and conditions named. Some entries that bind do so weakly or less than the wild type.

B1: MY1530-1-20 (VHH)
VHH: QVQLQESGGGSVLAGGSLRLSCTVSGSFVSSRSMAWFRQTPGKEREGVAAISQYGDPKYAGSVKGRFTMSRDNAKNTLLLQMNSLKPEDTAIYYCAAGEAWELATLSRSDYIYWGQGTQVTVSS
notes: Expressed in E. coli WK6 from vector pMECS, purified on a nickel column; also called MY1530-1-20 VHH; anti-TROP2 single domain antibody
B2: MY1530-1-26 (VHH)
VHH: QVQLQESGGGSVQAGGSLRLSCVVSGYTTTRYSMAWFRQAPGKEREGVAGIDTDVLTTYKPSVEGRFTISRDSAKRTLYLQMNSLKPEDTAMYYCATGTGNFLALDPVWYNTWGQGTQVTVSS
notes: Expressed in E. coli WK6 from vector pMECS, purified on a nickel column; also called MY1530-1-26 VHH; anti-TROP2 single domain antibody
B3: MY1530-2-53 (VHH)
VHH: QVQLQESGGGSVQAGGSLRLSCAVSGLTSSTTCMGWFRQAPGKEREGVAVIRSSGETTAADSVKGRFTISRDNAKNTLSLQMTSLKPEDTAMYYCAAAWPYSGCLLPLSSGDFTYWGQGTQVTVSS
notes: Expressed in E. coli WK6 from vector pMECS, purified on a nickel column; also called MY1530-2-53 VHH; anti-TROP2 single domain antibody
B4: MY1530-5-17 (VHH)
VHH: QVQLQESGGGSVQPGGSLRLSCVVSGYTVSSVCMAWFRQAPGMERELVAGFYHSGGTYYGDSVKGRFTASQDNAKNTLYLQMNSLKPEDTATYYCARARYPSSACGTSPSNYNIWGQGTQVTVSS
notes: Expressed in E. coli WK6 from vector pMECS, purified on a nickel column; also called MY1530-5-17 VHH; anti-TROP2 single domain antibody
B5: MY1530-4-22 (VHH)
VHH: QVQLQESGGGSVQAGGSLKLSCVVSGYTVSSVCMAWFRQAPGMERELVAGFYHSGGTYYGDSVKGRFTASQDNAKNTLYLQMNSLKPEDTATYYCARARYPSSACGTSPSNYNIWGQGTQVTVSS
notes: Expressed in E. coli WK6 from vector pMECS, purified on a nickel column; also called MY1530-4-22 VHH; anti-TROP2 single domain antibody
B6: MY1530-5-54 (VHH)
VHH: QVQLQESGGGSVQPGGSLRLSCVASGYTASSVCMAWFRQAPGKERELVAGYYHSGGTYYGDSVKGRFTASQDNAKNTLYLQMNSLKPEDTATYYCARARYPSSACGTSPSNYNIWGQGTQVTVSS
notes: Expressed in E. coli WK6 from vector pMECS, purified on a nickel column; also called MY1530-5-54 VHH; anti-TROP2 single domain antibody
B7: MY1530-4-28 (VHH)
VHH: QVQLQESGGGSVQAGGSLRLSCAASGFSVSTTWMHWVRQAPGKGLEWVSRIAINDHTFYAESVKGRFTMSTDNAKNTVYLQMTSLKPEDTAVYYCSPYSDYRIRGQGTQVTVSS
notes: Expressed in E. coli WK6 from vector pMECS, purified on a nickel column; also called MY1530-4-28 VHH; anti-TROP2 single domain antibody
B8: MY1530-6-1 (VHH)
VHH: QVQLQESGGGSVQAGGSLRLSCAASGFPYSSYSMGWFRQAPGKEREGVAAIYTGGGSTYYAGSVKGRFTISQEHATNTLYLQMNSLKPEDTAMYYCAANMVDNGVISGIQALGVRYYNYWGQGTQVTVSS
notes: Expressed in E. coli WK6 from vector pMECS, purified on a nickel column; also called MY1530-6-1 VHH; anti-TROP2 single domain antibody

The binders below were run against rhesus monkey TROP2-Fc antigen protein (rhesus monkey) (assay: ELISA, coated rhesus monkey TROP2-Fc).
B1 was tested, and the binding was “binds”. For B2, the binding was “binds”. B3 was tested, and the binding was “binds”. B4 was tested, and the binding was “binds”. B5 was tested, and the binding was “binds”. B6 was tested, and the binding was “binds”. With B7 the binding was “binds”. B8 was tested, and the binding was “binds”.
